In patent US20260256792A1, “TREATMENT OF CHRONIC SPONTANEOUS URTICARIA BY ADMINISTERING (R)-2-[3-[4-AMINO-3-(2-FLUORO-4-PHENOXY-PHENYL)PYRAZOLO[3,4-D]PYRIMIDIN-1-YL]PIPERIDINE-1-CARBONYL]-4-METHYL-4-[4-(OXETAN-3-YL)PIPERAZIN-1-YL]PENT-2-ENENITRILE” (priority 2023, published 2026):
This continues a long series; more values of the same kind are listed elsewhere.

Tested on: moderate-to-severe chronic spontaneous urticaria (CSU)
Test: Phase 2 CSU study: urticaria activity score over 7 days (UAS7)
Type: in vivo, human
Design: key to UAS7 Change from baseline LS Mean (SE): UAS7 points; daily UAS score ranges 0–6 points/day, over 7 days
From the text: The study comprises a 12 week, randomized, double-blind, placebo-controlled, multi-center, dose-ranging efficacy and safety phase, followed by a 40 week open label extension (OLE) phase (see FIG. 1). The study consists of three phases and an optional OLE phase. […] Clinically, CSU is characterized by the spontaneous and recurrent appearance of pruritic hives. The proposed primary endpoints were the UAS7 at Week 12 in EU and EU reference countries and the ISS7 in the US. Regardless of where a participant was from, all assessments were the same. The UAS7 score is a composite score containing both the HSS7 and the ISS7. This allowed a global assessment of the two key components of urticaria: hives and itch. […] The UAS is a validated PRO measure. […] The daily UAS scores range from 0 to 6 point/day. […] Patients were to complete the UAS using the e-diary. […] The following secondary endpoints were to be analyzed using the same approach as for the primary endpoint: • Change from baseline in UAS7 at Week 4 • Change from baseline in UAS7 at Week 12 (for US and US reference countries) • Change from baseline in ISS7 at Week 12 (except US and US reference countries) • Change from baseline in HSS7 at Week 12 The following responder secondary endpoints were to be analyzed using the Cochran-Mantel-Haenszel test adjusted by region: • Proportion of participants with UAS7<6 at Week 12 • Proportion of participants with UAS7=0 at Week 12 Participants who received selected prohibited medications and/or rescue medications were to be considered as non-responders for time points after the medication usage. For other participants, all available data including those collected during the off-treatment period were to be used to determine the responder/non-responder status. Missing data were to be considered as non-responders.

[1] = Omalizumab-Naïve Population with Outlier Removed, 400 mg QPM, Week 8
[2] = Omalizumab-Naïve Population with Outlier Removed, 400 mg QPM, Week 9
[3] = Omalizumab-Naïve Population with Outlier Removed, 400 mg QPM, Week 10
[4] = Omalizumab-Naïve Population with Outlier Removed, 400 mg QPM, Week 11
[5] = Omalizumab-Naïve Population with Outlier Removed, 400 mg QPM, Week 12
[6] = Omalizumab-Naïve Population with Outlier Removed, 400 mg TID, Week 1
[7] = Omalizumab-Naïve Population with Outlier Removed, 400 mg TID, Week 2
[8] = Omalizumab-Naïve Population with Outlier Removed, 400 mg TID, Week 3
[9] = Omalizumab-Naïve Population with Outlier Removed, 400 mg TID, Week 4
[10] = Omalizumab-Naïve Population with Outlier Removed, 400 mg TID, Week 5
[11] = Omalizumab-Naïve Population with Outlier Removed, 400 mg TID, Week 6
[12] = Omalizumab-Naïve Population with Outlier Removed, 400 mg TID, Week 7
[13] = Omalizumab-Naïve Population with Outlier Removed, 400 mg TID, Week 8
[14] = Omalizumab-Naïve Population with Outlier Removed, 400 mg TID, Week 9
[15] = Omalizumab-Naïve Population with Outlier Removed, 400 mg TID, Week 10
[16] = Omalizumab-Naïve Population with Outlier Removed, 400 mg TID, Week 11
[17] = Omalizumab-Naïve Population with Outlier Removed, 400 mg TID, Week 12
[18] = Omalizumab-Naïve Population, 400 mg BID, Week 5
[19] = Omalizumab-Naïve Population, 400 mg BID, Week 6
[20] = Omalizumab-Naïve Population, 400 mg BID, Week 7

## CC(C)(C=C(C#N)C(=O)N1CCC[C@@H](n2nc(-c3ccc(Oc4ccccc4)cc3F)c3c(N)ncnc32)C1)N1CCN(C2COC2)CC1 [rilzabrutinib, (R)-2-[3-[4-amino-3-(2-fluoro-4-phenoxy-phenyl)pyrazolo[3,4-d]pyrimidin-1-yl]piperidine-1-carbonyl]-4-methyl-4-[4-(oxetan-3-yl)piperazin-1-yl]pent-2-enenitrile]
[1]
  UAS7 % Change from baseline LS Mean (SE): −35.12 (6.14) %
  UAS7 Change difference for rilzabrutinib vs. placebo LS Mean (95% CI): −0.58 (−5.54, 4.37)
  UAS7 Change from baseline LS Mean (SE): −10.60 (1.81)
[2]
  UAS7 % Change difference for rilzabrutinib vs. placebo LS Mean (95% CI): −9.02 %
  UAS7 % Change from baseline LS Mean (SE): −35.85 (6.16) %
  UAS7 Change difference for rilzabrutinib vs. placebo LS Mean (95% CI): −2.25 (−7.32, 2.82)
[3]
  UAS7 % Change difference for rilzabrutinib vs. placebo LS Mean (95% CI): −6.86 %
  UAS7 % Change from baseline LS Mean (SE): −37.24 (6.37) %
  UAS7 Change difference for rilzabrutinib vs. placebo LS Mean (95% CI): −1.84 (−7.00, 3.33)
[4]
  UAS7 % Change difference for rilzabrutinib vs. placebo LS Mean (95% CI): −7.69 %
  UAS7 % Change from baseline LS Mean (SE): −36.00 (6.57) %
  UAS7 Change from baseline LS Mean (SE): −10.76 (1.90)
[5]
  UAS7 % Change difference for rilzabrutinib vs. placebo LS Mean (95% CI): −3.75 %
  UAS7 % Change from baseline LS Mean (SE): −34.40 (6.66) %
  UAS7 Change difference for rilzabrutinib vs. placebo LS Mean (95% CI): 0.08 (−5.29, 5.46)
  UAS7 Change from baseline LS Mean (SE): −9.93 (1.96)
[6]
  UAS7 % Change difference for rilzabrutinib vs. placebo LS Mean (95% CI): −27.32 %
  UAS7 % Change from baseline LS Mean (SE): −36.85 (5.65) %
  UAS7 Change difference for rilzabrutinib vs. placebo LS Mean (95% CI): −7.98 (−13.13, −2.83)
  UAS7 Change from baseline LS Mean (SE): −11.59 (1.59)
[7]
  UAS7 % Change difference for rilzabrutinib vs. placebo LS Mean (95% CI): −27.17 %
  UAS7 % Change from baseline LS Mean (SE): −44.94 (5.49) %
  UAS7 Change difference for rilzabrutinib vs. placebo LS Mean (95% CI): −7.96 (−12.18, −3.73)
  UAS7 Change from baseline LS Mean (SE): −13.89 (1.58)
[8]
  UAS7 % Change difference for rilzabrutinib vs. placebo LS Mean (95% CI): −27.10 %
  UAS7 % Change from baseline LS Mean (SE): −47.26 (5.69) %
  UAS7 Change difference for rilzabrutinib vs. placebo LS Mean (95% CI): −7.70 (−12.10, −3.31)
  UAS7 Change from baseline LS Mean (SE): −14.55 (1.64)
[9]
  UAS7 % Change difference for rilzabrutinib vs. placebo LS Mean (95% CI): −26.13 %
  UAS7 % Change from baseline LS Mean (SE): −46.87 (5.93) %
  UAS7 Change difference for rilzabrutinib vs. placebo LS Mean (95% CI): −7.25 (−11.83, −2.67)
  UAS7 Change from baseline LS Mean (SE): −14.31 (1.71)
[10]
  UAS7 % Change difference for rilzabrutinib vs. placebo LS Mean (95% CI): −19.26 %
  UAS7 % Change from baseline LS Mean (SE): −51.99 (5.73) %
  UAS7 Change difference for rilzabrutinib vs. placebo LS Mean (95% CI): −5.61 (−10.23, −0.99)
  UAS7 Change from baseline LS Mean (SE): −16.07 (1.72)
[11]
  UAS7 % Change difference for rilzabrutinib vs. placebo LS Mean (95% CI): −23.48 %
  UAS7 % Change from baseline LS Mean (SE): −50.57 (6.35) %
  UAS7 Change from baseline LS Mean (SE): −15.69 (1.88)
[12]
  UAS7 % Change difference for rilzabrutinib vs. placebo LS Mean (95% CI): −24.12 %
  UAS7 % Change from baseline LS Mean (SE): −52.77 (6.02) %
  UAS7 Change from baseline LS Mean (SE): −16.24 (1.78)
[13]
  UAS7 % Change difference for rilzabrutinib vs. placebo LS Mean (95% CI): −20.31 %
  UAS7 % Change from baseline LS Mean (SE): −51.40 (6.43) %
  UAS7 Change difference for rilzabrutinib vs. placebo LS Mean (95% CI): −5.68 (−10.80, −0.56)
  UAS7 Change from baseline LS Mean (SE): −15.70 (1.90)
[14]
  UAS7 % Change difference for rilzabrutinib vs. placebo LS Mean (95% CI): −25.28 %
  UAS7 % Change from baseline LS Mean (SE): −52.11 (6.55) %
  UAS7 Change difference for rilzabrutinib vs. placebo LS Mean (95% CI): −7.36 (−12.59, −2.14)
  UAS7 Change from baseline LS Mean (SE): −16.22 (1.96)
[15]
  UAS7 % Change difference for rilzabrutinib vs. placebo LS Mean (95% CI): −23.84 %
  UAS7 % Change from baseline LS Mean (SE): −54.21 (6.69) %
  UAS7 Change difference for rilzabrutinib vs. placebo LS Mean (95% CI): −6.91 (−12.19, −1.64)
  UAS7 Change from baseline LS Mean (SE): −16.56 (1.98)
[16]
  UAS7 % Change difference for rilzabrutinib vs. placebo LS Mean (95% CI): −24.83 %
  UAS7 % Change from baseline LS Mean (SE): −53.14 (6.75) %
  UAS7 Change difference for rilzabrutinib vs. placebo LS Mean (95% CI): −7.03 (−12.30, −1.76)
  UAS7 Change from baseline LS Mean (SE): −16.34 (1.95)
[17]
  UAS7 % Change difference for rilzabrutinib vs. placebo LS Mean (95% CI): −26.35 %
  UAS7 % Change from baseline LS Mean (SE): −57.01 (7.01) %
  UAS7 Change difference for rilzabrutinib vs. placebo LS Mean (95% CI): −7.50 (−13.02, −1.97)
  UAS7 Change from baseline LS Mean (SE): −17.50 (2.06)
[18]
  UAS7 % Change difference for rilzabrutinib vs. placebo LS Mean (95% CI): −8.73%
  UAS7 % Change from baseline LS Mean (SE): −41.58 (5.68) %
  UAS7 Change difference for rilzabrutinib vs. placebo LS Mean (95% CI): −1.60
  UAS7 Change from baseline LS Mean (SE): −12.04 (1.72)
[19]
  UAS7 % Change difference for rilzabrutinib vs. placebo LS Mean (95% CI): −14.68%
  UAS7 % Change from baseline LS Mean (SE): −41.23 (6.32) %
  UAS7 Change difference for rilzabrutinib vs. placebo LS Mean (95% CI): −3.03
  UAS7 Change from baseline LS Mean (SE): −12.21 (1.87)
[20]
  UAS7 % Change difference for rilzabrutinib vs. placebo LS Mean (95% CI): −18.46%
  UAS7 % Change from baseline LS Mean (SE): −47.01 (5.97) %
  UAS7 Change difference for rilzabrutinib vs. placebo LS Mean (95% CI): −4.51
  UAS7 Change from baseline LS Mean (SE): −13.94 (1.77)
